According to article PMC9478157:
Results are given in words; binding and its absence hold for the method and conditions named. In cells and extracts the contact can be indirect. Some results given as binding are weak or reduced against the parent protein; the word gives no strength.

Sequences of proteins named here, by UniProt entry; tags and fusion partners are left off.
UniProt P23772: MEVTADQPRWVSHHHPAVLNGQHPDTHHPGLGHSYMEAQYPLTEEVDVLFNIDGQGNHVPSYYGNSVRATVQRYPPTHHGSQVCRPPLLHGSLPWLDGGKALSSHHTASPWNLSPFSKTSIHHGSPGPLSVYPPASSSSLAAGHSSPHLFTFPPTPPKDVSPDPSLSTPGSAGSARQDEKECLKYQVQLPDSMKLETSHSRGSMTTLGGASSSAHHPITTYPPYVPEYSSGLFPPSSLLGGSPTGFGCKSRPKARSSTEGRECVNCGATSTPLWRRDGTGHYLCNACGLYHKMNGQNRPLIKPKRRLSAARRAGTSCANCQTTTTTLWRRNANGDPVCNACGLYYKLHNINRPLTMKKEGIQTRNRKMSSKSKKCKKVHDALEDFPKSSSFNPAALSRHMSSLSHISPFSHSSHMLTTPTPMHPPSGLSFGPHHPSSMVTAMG

Molecular target: Myc-Flag-GATA3 (UniProt P23772)
Assay: co-IP; ILC2/b6 cells infected with retroviruses for FLAG-GATA3 and JunB; five days later IP with anti-Flag M2 agarose overnight at 4 °C, immunoblot with anti-JunB; IP buffer 50 mM Tris-HCl pH 7.5, 150 mM NaCl, 10% glycerol, 0.1% Tween, 1 mM EDTA

B1: JunB (retrovirus-encoded, ILC2/b6 cells) (protein, UniProt P09450 1-344)
chain: MCTKMEQPFYHDDSYAAAGYGRSPGSLSLHDYKLLKPTLALNLADPYRGLKGPGARGPGPEGSGAGSYFSGQGSDTGASLKLASTELERLIVPNSNGVITTTPTPPGQYFYPRGGGSGGGTGGGVTEEQEGFADGFVKALDDLHKMNHVTPPNVSLGASGGPQAGPGGVYAGPEPPPVYTNLSSYSPASAPSGGSGTAVGTGSSYPTATISYLPHAPPFAGGHPAQLGLSRGASAFKEEPQTVPEARSRDATPPVSPINMEDQERIKVERKRLRNRLAATKCRKRKLERIARLEDKVKTLKAENAGLSSAAGLLREQVAQLKQKVMTHVSNGCQLLLGVKGHAF
- binding: binds
